Experimental data as given in patent US5122511A, “Immunosuppressive cyclosporin analogs with modified amino acids at position-8” (Merck & Co., Inc., priority 1990, dated 1992).
Where “and” joins values, the source holds several entries; their conditions need not be identical. Identical values can stand only once. Not every detail of the peptide structures is certain; ends, links or a residue may be inferred.

Amino acid sequences for entries named in this document (tags omitted).
UniProt P62937, whole entry: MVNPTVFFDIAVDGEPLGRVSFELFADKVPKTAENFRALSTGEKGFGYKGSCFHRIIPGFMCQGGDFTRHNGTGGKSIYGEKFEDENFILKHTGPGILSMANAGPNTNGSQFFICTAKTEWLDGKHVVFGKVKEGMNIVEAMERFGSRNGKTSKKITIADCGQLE

Legend:
[1] = test system: mouse T-cell cultures stimulated with ionomycin plus phorbol myristate acetate (PMA); experiment: T-cell proliferation inhibition (ionomycin plus PMA stimulated, MTT readout); assay type: cell-based; settings: C57B1/6 spleen T-cells, ionomycin 250 ng/ml + PMA 10 ng/ml, 44 hours; relative to CsA = 100; several values per compound
cyclophilin = cyclophilin (Homo sapiens, UniProt P62937); experiment: Cyclophilin binding; settings: expressed relative to CsA (cyclosporin A) = 100

| SMILES | T-Cell Proliferation Inhibition [1] | Cyclophilin Binding (cyclophilin) [% CsA activity] |
| --- | --- | --- |
| C/C=C/C[C@@H](C)[C@@H](O)[C@H]1C(=O)N[C@@H](CC)C(=O)N(C)CC(=O)N(C)[C@@H](CC(C)C)C(=O)N[C@@H](C(C)C)C(=O)N(C)[C@@H](CC(C)C)C(=O)N[C@@H](C)C(=O)N[C@H](CSCC(=O)OC)C(=O)N(C)[C@@H](CC(C)C)C(=O)N(C)[C@@H](CC(C)C)C(=O)N(C)[C@@H](C(C)C)C(=O)N1C [D-[3-carbomethoxymethylthio-Ala]^8 CsA] | 24 % CsA activity and 33 % CsA activity and 41 % CsA activity and 30 % CsA activity |  |
| C/C=C/C[C@@H](C)[C@@H](O)[C@H]1C(=O)N[C@@H](CC)C(=O)N(C)CC(=O)N(C)[C@@H](CC(C)C)C(=O)N[C@@H](C(C)C)C(=O)N(C)[C@@H](CC(C)C)C(=O)N[C@@H](C)C(=O)N[C@H](CSCCO)C(=O)N(C)[C@@H](CC(C)C)C(=O)N(C)[C@@H](CC(C)C)C(=O)N(C)[C@@H](C(C)C)C(=O)N1C [[HOCH2 CH2SAla], D-[3(2-Hydroxyethylthio)Ala]^8 CsA] | 50 % CsA activity and 80 % CsA activity and 85 % CsA activity and 54 % CsA activity |  |
| C/C=C/C[C@@H](C)[C@@H](O)[C@H]1C(=O)N[C@@H](CC)C(=O)N(C)CC(=O)N(C)[C@@H](CC(C)C)C(=O)N[C@@H](C(C)C)C(=O)N(C)[C@@H](CC(C)C)C(=O)N[C@@H](C)C(=O)N[C@H](CSC)C(=O)N(C)[C@@H](CC(C)C)C(=O)N(C)[C@@H](CC(C)C)C(=O)N(C)[C@@H](C(C)C)C(=O)N1C [[CH3 SAla], D-[3-Methylthio-Ala]^8 -CsA] |  | 76 |
| C=C1NC(=O)[C@H](C)NC(=O)[C@H](CC(C)C)N(C)C(=O)[C@H](C(C)C)NC(=O)[C@H](CC(C)C)N(C)C(=O)CN(C)C(=O)[C@H](CC)NC(=O)[C@H]([C@H](O)[C@H](C)C/C=C/C)N(C)C(=O)[C@H](C(C)C)N(C)C(=O)[C@H](CC(C)C)N(C)C(=O)[C@H](CC(C)C)N(C)C1=O [[Dehydro-Ala], [Dehydro-Ala]^8 -CsA] | approx. 30 % CsA activity |  |
